The assay concerns the target transcriptional coactivator with PDZ-binding motif (TAZ) (human (endogenous in MDA-MB-231)) (UniProt Q9GZV5). In words: co-IP; endogenous proteins of MDA-MB-231 cells; pull-down samples with anti-TAZ antibody or anti-RhoA antibody, pre-immune mouse or rabbit IgG as controls; immunoblotting. In general terms: In western blotting, separated proteins are transferred to a membrane and probed.

Chains of the proteins cited; added tags and fusions are not shown.
UniProt Q9GZV5: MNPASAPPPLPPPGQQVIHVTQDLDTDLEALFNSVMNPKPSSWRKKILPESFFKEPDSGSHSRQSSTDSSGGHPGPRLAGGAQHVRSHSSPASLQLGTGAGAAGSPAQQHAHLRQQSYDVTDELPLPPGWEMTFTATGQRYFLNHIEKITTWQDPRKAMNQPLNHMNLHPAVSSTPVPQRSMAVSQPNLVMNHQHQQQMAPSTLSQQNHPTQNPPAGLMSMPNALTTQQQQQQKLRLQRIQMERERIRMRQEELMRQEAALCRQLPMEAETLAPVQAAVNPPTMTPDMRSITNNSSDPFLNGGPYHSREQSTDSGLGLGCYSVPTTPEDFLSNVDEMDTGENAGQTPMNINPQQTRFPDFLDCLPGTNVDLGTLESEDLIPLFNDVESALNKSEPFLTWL
UniProt P61586: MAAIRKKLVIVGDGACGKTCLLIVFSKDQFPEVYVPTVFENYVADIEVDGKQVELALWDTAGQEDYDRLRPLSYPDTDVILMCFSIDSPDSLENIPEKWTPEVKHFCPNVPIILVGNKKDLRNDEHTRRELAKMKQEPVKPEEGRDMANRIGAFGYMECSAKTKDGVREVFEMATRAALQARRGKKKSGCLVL

Results are given in words; binding and its absence hold for the method and conditions named. In cells and extracts the contact can be indirect.

In paper PMC11106448 one finds binding data, which are given here for 1 substance.

As for “RhoA, a small Rho GTPase protein (from UniProt P61586 1-193)”, the binding entry is “no binding”.
